# Article PMC8318279
# These are yes or no findings as the source states them, for the method shown. In cells and extracts the contact can be indirect. Here binding means that the protein was enriched with, or labelled near, the bait; the list need not be complete. Tags and fused reporters may be left off the sequences shown.
# T1: HA::degron::RMH-1 (C. elegans) (UniProt P91399)
# T1 sequence: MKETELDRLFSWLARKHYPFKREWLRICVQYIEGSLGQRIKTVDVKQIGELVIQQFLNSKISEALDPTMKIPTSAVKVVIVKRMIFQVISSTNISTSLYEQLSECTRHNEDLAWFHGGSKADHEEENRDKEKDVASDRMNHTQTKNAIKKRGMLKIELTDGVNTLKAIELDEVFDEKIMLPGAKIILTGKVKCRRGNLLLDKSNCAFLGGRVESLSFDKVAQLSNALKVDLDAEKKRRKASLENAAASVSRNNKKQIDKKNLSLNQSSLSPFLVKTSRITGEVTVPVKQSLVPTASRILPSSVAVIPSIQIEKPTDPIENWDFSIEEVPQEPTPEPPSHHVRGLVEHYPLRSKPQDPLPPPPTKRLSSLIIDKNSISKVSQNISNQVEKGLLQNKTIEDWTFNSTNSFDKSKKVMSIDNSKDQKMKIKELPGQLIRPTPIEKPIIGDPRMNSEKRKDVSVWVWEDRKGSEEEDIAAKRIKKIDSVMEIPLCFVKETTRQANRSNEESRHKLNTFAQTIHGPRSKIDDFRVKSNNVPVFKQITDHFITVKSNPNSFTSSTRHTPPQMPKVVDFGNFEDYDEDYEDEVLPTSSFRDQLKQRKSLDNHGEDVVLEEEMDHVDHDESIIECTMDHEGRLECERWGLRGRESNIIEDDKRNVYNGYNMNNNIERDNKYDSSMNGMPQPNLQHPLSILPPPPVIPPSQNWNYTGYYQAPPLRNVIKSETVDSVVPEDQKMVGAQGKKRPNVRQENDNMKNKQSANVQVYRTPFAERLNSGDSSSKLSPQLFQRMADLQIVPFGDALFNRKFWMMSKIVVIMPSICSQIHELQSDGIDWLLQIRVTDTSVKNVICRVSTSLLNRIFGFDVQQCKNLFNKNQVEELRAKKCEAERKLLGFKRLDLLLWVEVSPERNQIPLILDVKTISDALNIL
# Biological target: T1, HA::degron::RMH-1 (C. elegans)
# Experiment: affinity purification with mass spectrometry; HA-tagged RMH-1 immunoprecipitated on HA magnetic beads from at least 1 mg pooled soluble and insoluble nuclear fractions of worms; buffer D (150 mM KCl, 20 mM Hepes-KOH pH 7.9, 0.2% Triton X-100, 20% glycerol), overnight at 4°C; triplicate, against control
row,binding,Molecule
1,binds,TOP-3 (topoisomerase 3) (C. elegans)
2,binds,"HIM-6 (Bloom helicase) (protein, UniProt O18017 1-988) MIKNREIEVAPPRRTIQFGGYTFVEPDLNFKAPIFSCCGSIRDPSCEEREEEYIDNGHDEEPPVEVNRIQESTSFDEPVSSPPRYRPSENPGPSSSSYEPGHYSFNEYQQFPSRPQKRLVDPPIVDLDEEPPIVDLDDSFDNFHVGSTSEEVVSGDIAPEEEEEEGHDSFDDFESVPAQPPSKNTLASLQKSDSEIALNQQRHDMHGRFRGFLQDDSEEFSDEVGLLGADMNKELYDTLKSKFGFNQFRHRQKQCILSTLMGHDTFVLMPTGAGKSLCYQLPAVILPGVTVVVSPLRSLIEDQKMKMKELGIGCEALTADLGAPAQEKIYAELGSGNPSIKLLYVTPEKISASGRLNSVFFDLHRRGLLARFVIDEAHCVSQWGHDFRPDYTKLSSLREKYANPPVPIIALTATATPKIVTDARDHLKMQNSKLFISSFVRDNLKYDLIPKAARSLINVVEKMKQLYPGKSGIVYCLSRKECETVQMMLTKAGLSAEVYHAGLNDNLRVSVQRSWIANKFDVICATIAFGMGIDKPDVRFVIHYSLPKSIEGYYQETGRAGRDGMPSYCLMLYSYHDSIRLRRMIEEGNTTTGVRSMHLNNVLQVVAYCENVSVCRRKMLVEHFGEVYDEQSCRNSKTPCDICERQRKNAEAIRLFDVSTDALSILKCLPRMQKATLKYISELYRGALIKKSQEQAMRLGHTKLPFYSKGQGMSEQDALRFVRKLVIEGYIHERLYSVPNQAAAVFAYAELTEAGRDLANGKKTAKVYLHIVTCERKRKNAGLIELSNMNIVSEAQALKERHMVKHGDVFTRCLQDLTHLITAVAESSGLSGPYSIVSREGIEQIAALLPRTNSDLLRIDSMTQIKVTKYGRLIMELLATYWKQVDEREEEEMRNQLDKLKSGEIVMGGFATLQSDPGFPSVPYMKPLGGGGGCRGRGKKRAFSGFSSGRATKKPRATAPSARGKTSGRGGAKPATSLKRNMYPATSM"
3,binds,"RPA-1 (replication protein A) (protein, UniProt Q19537 1-655) MAAIHINHDVFNKYHTNGKLRLTTGYVQEAIENNGYPGHDGIVQVLKGKVEQGEQLGHAFTFRIRISDGVFQYNALMSADIDDQIKREVEHLVEGTIIALTKFEIYDQGEGAKNCFLIKGYKILSRYHQVLTSPEVKPRSHSGKPDEHKGYRPNIIIEDVWPEAEGMAADYQENMANPPAAKAPKREFGEEASYNRAAAPEATRARAVPPPARRTASNTERGVMPIAMVTPYVSNFKIHGMVSRKEEIRTFPAKNTKVFNFEITDSNGDTIRCTAFNEVAESLYTTITENLSYYLSGGSVKQANKKFNNTGHDYEITLRSDSIIEAGGELLAAPKLILKRVKLGEIAGYAGQLIDVLVVVEKMDPEATEFTSKAGKSLIKREMELIDESGALVRLTLWGDEATKALVDDYVQKVIAFKGVIPREFNGGFSLGTGSATRIISVPEIAGVSELYDWYANVKPTTEVKMMSQAAGGSNEAPRTIAGLQEMQFGKDSDKGDYATVKAMITRVNPTNALYRGCASEGCQKKLVGENGDYRCEKCNKNMNKFKWLYMMQFELSDETGQVYVTAFGDSAAKIVGKSAAELGELHDESPDEYNAIFERLQFVPKMWRLRCKMDSYNEEVRQKMTVYGVDDVNQDKYIENLKQMIEQMQQMSDY"
